PubChem BioAssay AID743454, Peter MacCallum Cancer Centre | 2014

- Aim: 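Search for knock-downs that restore vorinostat killing in resistant colon cancer cells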 (primary screen)
- Cell system: human HCT116-VR colon cancer cells, selected for vorinostat resistance
- Reagent: siRNA pool against human genes, 40 nM siRNA pool
- Time to read-out: vorinostat for 24 h, read-out about 72 h after transfection
- Conditions: vorinostat at 2.5 µM final
- Measurement: 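Cell viability by CellTiter-Fluor and caspase 3/7 activity by luminescence, each scaled to mock wells per plate, duplicates averaged, then robust z-scored over all plates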
- Direction: viability robust z-score: higher = more viable cells than screen typical; caspase robust z-score: higher = more caspase 3/7 activity than screen typical
- Rule for the call: 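a knock-down is a hit when classed RV1 or RV2 for lowered viability, or CA1 or CA2 for caspase activation; those lethal without drug were dropped; hits were retested singly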
Shown is one part, drawn at random, of about 18,000 deposited reagents. 450 of all reagents (2.5%) were called active. 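Single biological run; no consistent viability z cut-off exists, so the class columns, not z-scores, define the calls.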 Unmarked entries are inactive.

TPP1 (GeneID 1200) scored viability hit class no change; caspase hit class no change; viability robust z-score 0.84; caspase robust z-score 0.15.
With knock-down of HPGD (GeneID 3248), the record shows viability hit class no change; caspase hit class no change; viability robust z-score -1.8; caspase robust z-score 3.
For SKA2 (GeneID 348235) the deposit lists viability hit class no change; caspase hit class no change; viability robust z-score 1.62; caspase robust z-score -0.68.
Against OMD (GeneID 4958) the deposit lists viability hit class no change; caspase hit class no change; viability robust z-score -0.76; caspase robust z-score 2.21.
With knock-down of HINFP (GeneID 25988), the screen gave viability hit class no change; caspase hit class no change; viability robust z-score 0.62; caspase robust z-score -0.15.
MRPS5 (GeneID 64969) scored viability hit class no change; caspase hit class no change; viability robust z-score -0.57; caspase robust z-score -1.19.
Against DEFA4 (GeneID 1669) the deposit lists viability hit class no change; caspase hit class no change; viability robust z-score -1.77; caspase robust z-score 3.05.
With knock-down of MAGEB10 (GeneID 139422) the results were viability hit class no change; caspase hit class no change; viability robust z-score -0.66; caspase robust z-score -0.16.
Against MEST (GeneID 4232) the deposit lists viability hit class no change; caspase hit class no change; viability robust z-score 0; caspase robust z-score 1.23.
Knock-down of DEDD (GeneID 9191) came out at: viability hit class no change; caspase hit class no change; viability robust z-score -0.51; caspase robust z-score 0.11.
Against OR13C3 (GeneID 138803), the values are viability hit class no change; caspase hit class no change; viability robust z-score 0.05; caspase robust z-score 3.73.
With knock-down of COX11 (GeneID 1353), the record shows viability hit class no change; caspase hit class no change; viability robust z-score 0.28; caspase robust z-score 0.76.
Against NAA11 (GeneID 84779), the values are viability hit class no change; caspase hit class no change; viability robust z-score 0.25; caspase robust z-score 0.03.
With knock-down of SPOP (GeneID 8405), the record shows viability hit class no change; caspase hit class no change; viability robust z-score -0.74; caspase robust z-score -0.91.

2 entries from above in another layout.
{"target gene":"OR13C3 (GeneID 138803)","viability hit class":"no change","caspase hit class":"no change","viability robust z-score":0.05,"caspase robust z-score":3.73}
{"target gene":"COX11 (GeneID 1353)","viability hit class":"no change","caspase hit class":"no change","viability robust z-score":0.28,"caspase robust z-score":0.76}

The results go on.
Against SARNP (GeneID 84324), the entry reads viability hit class no change; caspase hit class no change; viability robust z-score -0.17; caspase robust z-score -0.32.
Silencing of CELSR3 (GeneID 1951) gave: viability hit class no change; caspase hit class no change; viability robust z-score -1.92; caspase robust z-score 2.6.
After knock-down of POLM (GeneID 27434) the results were viability hit class no change; caspase hit class no change; viability robust z-score 0.28; caspase robust z-score 1.55.
For ANKS1A (GeneID 23294) the deposit lists viability hit class no change; caspase hit class no change; viability robust z-score -1.82; caspase robust z-score 2.52.
For ARMC12 (GeneID 221481), the entry reads viability hit class no change; caspase hit class no change; viability robust z-score -0.74; caspase robust z-score -0.36.
Knock-down of EFHC1 (GeneID 114327) gave: viability hit class no change; caspase hit class no change; viability robust z-score -0.41; caspase robust z-score 2.31.
Against IVL (GeneID 3713) the deposit lists viability hit class no change; caspase hit class no change; viability robust z-score -1.99; caspase robust z-score -0.66.
RAB24 (GeneID 53917) gave viability hit class no change; caspase hit class no change; viability robust z-score 0.84; caspase robust z-score 0.57.
Against DMAC2L (GeneID 27109), the values are viability hit class no change; caspase hit class no change; viability robust z-score 0.72; caspase robust z-score -0.5.
GUCA1C (GeneID 9626) scored viability hit class no change; caspase hit class no change; viability robust z-score -0.76; caspase robust z-score 2.23.
TBC1D19 (GeneID 55296) gave viability hit class no change; caspase hit class no change; viability robust z-score -0.09; caspase robust z-score -1.1.
Knock-down of DPF3 (GeneID 8110) came out at: viability hit class no change; caspase hit class no change; viability robust z-score -1.55; caspase robust z-score 1.04.
SPANXC (GeneID 64663) scored viability hit class no change; caspase hit class no change; viability robust z-score -1.4; caspase robust z-score 0.46.
